# Where a name gives a salt, the structure may show the parent alone. The list shows a part of the results. Repeats in this data set agree poorly, so a single value says little.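 ReNCell VM, a human fetal ventral-midbrain neural progenitor line, was differentiated without mitogens. Blinded raters scored images stained for doublecortin (early neurons) or tyrosine hydroxylase (dopaminergic neurons) against untreated wells (0 = no change). Scores were averaged across repeats and both raters, and compounds averaging 2 or more were selected as hits for retesting.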
# Experiments:
# ReNCell VM [1] = assay: neuronal differentiation score (DCX+ cell fraction vs untreated, manual image score) (score (-3 to 3)); higher = more neuronal differentiation; conditions: 2 uM, 2 weeks
# ReNCell VM [2] = assay: dopaminergic neuron differentiation score (TH+ cell fraction vs untreated, manual image score) (score (0 to 3)); higher = more TH+ dopaminergic neuron differentiation; conditions: 2 uM, 4 weeks, BDNF 10 ng/ml + GDNF 10 ng/ml
smiles,measurement,setting,value
CC(=O)Oc1cccc(O)c1,neuronal differentiation score,ReNCell VM [1]; library: Spectrum,inactive: 0
same,dopaminergic neuron differentiation score,ReNCell VM [2]; library: Spectrum,active: 2
CC(=O)Nc1ccc(OC(=O)c2ccccc2O)cc1,neuronal differentiation score,ReNCell VM [1]; library: Spectrum,inactive: 0
same,dopaminergic neuron differentiation score,ReNCell VM [2]; library: Spectrum,inactive: 0
CCCCCCCCCCOc1cc2c(O)c(C(=O)OCC)cnc2cc1OCC,neuronal differentiation score,ReNCell VM [1]; library: Spectrum,inactive: 0
same,dopaminergic neuron differentiation score,ReNCell VM [2]; library: Spectrum,inactive: 0
OC[C@H]1O[C@@H](O[C@@H]2[C@@H](CO)OC(O)(CO)[C@H]2O)[C@H](O)[C@@H](O)[C@H]1O (mixture of isomers),neuronal differentiation score,ReNCell VM [1]; library: Spectrum,inactive: 0
same,dopaminergic neuron differentiation score,ReNCell VM [2]; library: Spectrum,inactive: 1
COC(=O)[C@@H]1OC(=O)C2OC23[C@@]1(C)CCC1[C@]2(C)C(C[C@@H](O)[C@]13C)C(C)(C)[C@H](OC(C)=O)C[C@@H]2OC(C)=O (stereo not given in full),neuronal differentiation score,ReNCell VM [1]; library: Spectrum,inactive: 0
same,dopaminergic neuron differentiation score,ReNCell VM [2]; library: Spectrum,inactive: 0
CCOC(=O)COc1ccc2c(=O)cc(-c3ccccc3)oc2c1,neuronal differentiation score,ReNCell VM [1]; library: Spectrum,inactive: 0
same,dopaminergic neuron differentiation score,ReNCell VM [2]; library: Spectrum,inactive: 1
COc1ccc(CN(CCN(C)C)c2ccccn2)cc1 [Mepyramine maleate],neuronal differentiation score,ReNCell VM [1]; library: Tocriscreen,inactive: 0
same,dopaminergic neuron differentiation score,ReNCell VM [2]; library: Tocriscreen,inactive: 0
[O-][S+](c1ccccc1)c1ccc2nnnn2n1 (stereo not given),neuronal differentiation score,ReNCell VM [1]; library: Tocriscreen,inactive: 0
same,dopaminergic neuron differentiation score,ReNCell VM [2]; library: Tocriscreen,inactive: 0
CN1C(=O)CC[C@H]1c1cccnc1 [(-)-Cotinine],neuronal differentiation score,ReNCell VM [1]; library: LOPAC,inactive: 0
same,dopaminergic neuron differentiation score,ReNCell VM [2]; library: LOPAC,inactive: 0
C=C[C@@]1(C)CC(=O)[C@]2(O)[C@@]3(C)[C@@H](O)CCC(C)(C)[C@@H]3[C@H](O)[C@H](OC(C)=O)[C@@]2(C)O1 [forskolin],neuronal differentiation score,ReNCell VM [1]; library: Natural,inactive: 0
same,dopaminergic neuron differentiation score,ReNCell VM [2]; library: Natural,inactive: 0
"c1ccc(CN2CCC3(CCc4ccccc43)CC2)cc1 [L-693,403 maleate]",neuronal differentiation score,ReNCell VM [1]; library: Tocriscreen,inactive: 0
same,dopaminergic neuron differentiation score,ReNCell VM [2]; library: Tocriscreen,inactive: 0
C[C@]12CC[C@@H]3c4ccc(OS(=O)(=O)O)cc4CC[C@H]3[C@@H]1CCC2=O,neuronal differentiation score,ReNCell VM [1]; library: Spectrum,inactive: 0
same,dopaminergic neuron differentiation score,ReNCell VM [2]; library: Spectrum,inactive: 0
CC1CC2C3CCC4=CC(=O)C=CC4(C)C3(F)C(O)CC2(C)C1C(=O)CO (stereo not given),neuronal differentiation score,ReNCell VM [1]; library: Spectrum,inactive: 0
same,dopaminergic neuron differentiation score,ReNCell VM [2]; library: Spectrum,inactive: 0
Nc1nc(N)c2nc(-c3ccccc3)c(N)nc2n1,neuronal differentiation score,ReNCell VM [1]; library: Spectrum,inactive: 0
same,dopaminergic neuron differentiation score,ReNCell VM [2]; library: Spectrum,inactive: 0
O=C(O)CCNC(=O)c1ccc(/N=N/c2ccc(O)c(C(=O)O)c2)cc1 [Balsalazide Sodium],neuronal differentiation score,ReNCell VM [1]; library: Prestwick,inactive: 0
same,dopaminergic neuron differentiation score,ReNCell VM [2]; library: Prestwick,inactive: 0
O=C(O)CCCCCCCCCCCC[C@@H]1C=CCC1,neuronal differentiation score,ReNCell VM [1]; library: Spectrum,inactive: 0
same,dopaminergic neuron differentiation score,ReNCell VM [2]; library: Spectrum,inactive: 0
Cc1ccnc(NS(=O)(=O)c2ccc(N)cc2)n1 [Sulfamerazine],neuronal differentiation score,ReNCell VM [1]; library: Prestwick,inactive: 0
same,dopaminergic neuron differentiation score,ReNCell VM [2]; library: Prestwick,inactive: 0
S=C=Nc1ccc(N=C=S)cc1,neuronal differentiation score,ReNCell VM [1]; library: Spectrum,inactive: 0
same,dopaminergic neuron differentiation score,ReNCell VM [2]; library: Spectrum,inactive: 0
OC[C@@H](O)[C@@H](O)CO,neuronal differentiation score,ReNCell VM [1]; library: Spectrum,inactive: 0
same,dopaminergic neuron differentiation score,ReNCell VM [2]; library: Spectrum,inactive: 0
Cc1cc(=O)oc2cc(O)ccc12 [Hymecromone],neuronal differentiation score,ReNCell VM [1]; library: Prestwick,inactive: 0
same,dopaminergic neuron differentiation score,ReNCell VM [2]; library: Prestwick,inactive: 0
NCCCCN [Putrescine dihydrochloride],neuronal differentiation score,ReNCell VM [1]; library: LOPAC,inactive: 0
same,dopaminergic neuron differentiation score,ReNCell VM [2]; library: LOPAC,inactive: 0
OC(Cn1cncn1)(Cn1cncn1)c1ccc(F)cc1F [Fluconazole],neuronal differentiation score,ReNCell VM [1]; library: Prestwick,inactive: 0
same,dopaminergic neuron differentiation score,ReNCell VM [2]; library: Prestwick,inactive: 0
NCCCC(O)(P(=O)(O)O)P(=O)(O)O,neuronal differentiation score,ReNCell VM [1]; library: Spectrum,inactive: 1
same,dopaminergic neuron differentiation score,ReNCell VM [2]; library: Spectrum,inactive: 1
"O=c1[nH]ccc2c(O)cccc12 [1,5-Isoquinolinediol]",neuronal differentiation score,ReNCell VM [1]; library: LOPAC,inactive: 0
same,dopaminergic neuron differentiation score,ReNCell VM [2]; library: LOPAC,inactive: 0
N#CC(C#N)=C(N)/C(C#N)=C/c1cc(O)c(O)c(O)c1 [Tyrphostin 51],neuronal differentiation score,ReNCell VM [1]; library: LOPAC,inactive: 0
same,dopaminergic neuron differentiation score,ReNCell VM [2]; library: LOPAC,inactive: 0
Cc1c(N)c(=O)n(-c2ccccc2)n1C [Ampyrone],neuronal differentiation score,ReNCell VM [1]; library: Prestwick,inactive: 0
same,dopaminergic neuron differentiation score,ReNCell VM [2]; library: Prestwick,inactive: 0
COc1ccc(Nc2ncnc3ccc(OC)cc23)cc1 [MPMQ hydrochloride],neuronal differentiation score,ReNCell VM [1]; library: Tocriscreen,inactive: 0
same,dopaminergic neuron differentiation score,ReNCell VM [2]; library: Tocriscreen,inactive: 0
Oc1ccc(Nc2nc(-c3ccc(Cl)cc3)cs2)cc1,neuronal differentiation score,ReNCell VM [1]; library: Tocriscreen,inactive: 0
same,dopaminergic neuron differentiation score,ReNCell VM [2]; library: Tocriscreen,inactive: 0
CC(C)Cn1c(=O)n(C)c(=O)c2[nH]cnc21,neuronal differentiation score,ReNCell VM [1]; library: Spectrum,inactive: 0
same,dopaminergic neuron differentiation score,ReNCell VM [2]; library: Spectrum,inactive: 0
Oc1c(Cl)cc(Cl)c(Cl)c1Cc1c(O)c(Cl)cc(Cl)c1Cl [Hexachlorophene],neuronal differentiation score,ReNCell VM [1]; library: Prestwick,inactive: 0
same,dopaminergic neuron differentiation score,ReNCell VM [2]; library: Prestwick,active: 3
CN(Cc1ccccc1)C(=O)[C@H](Cc1ccc2ccccc2c1)NC(=O)[C@@H]1C[C@@H](O)CN1C(=O)c1cn(C)c2ccccc12,neuronal differentiation score,ReNCell VM [1]; library: Tocriscreen,inactive: 0
same,dopaminergic neuron differentiation score,ReNCell VM [2]; library: Tocriscreen,inactive: 0
OCCN1C[C@H](O)[C@@H](O)[C@H](O)[C@H]1CO [Miglitol],neuronal differentiation score,ReNCell VM [1]; library: Prestwick,inactive: 0
same,dopaminergic neuron differentiation score,ReNCell VM [2]; library: Prestwick,inactive: 0
CN1c2cc3c(cc2N=C(c2ccc(C(=O)O)cc2)c2ccccc21)C(C)(C)CCC3(C)C,neuronal differentiation score,ReNCell VM [1]; library: Tocriscreen,inactive: 0
same,dopaminergic neuron differentiation score,ReNCell VM [2]; library: Tocriscreen,inactive: 0
c1ccc2oc(C3=NCCN3)cc2c1 [2-BFI hydrochloride],neuronal differentiation score,ReNCell VM [1]; library: Tocriscreen,inactive: 0
same,dopaminergic neuron differentiation score,ReNCell VM [2]; library: Tocriscreen,inactive: 0
"COc1cc2c(cc1OC)OC(C)(C)C=C2 [6,7-dimethoxy-2,2-dimethyl-2h-1-benzopyran]",neuronal differentiation score,ReNCell VM [1]; library: Natural,inactive: 0
same,dopaminergic neuron differentiation score,ReNCell VM [2]; library: Natural,inactive: 0

# 2 entries drawn at random from those above:
smiles,measurement,setting,value
N#CC(C#N)=C(N)/C(C#N)=C/c1cc(O)c(O)c(O)c1 [Tyrphostin 51],neuronal differentiation score,ReNCell VM [1]; library: LOPAC,inactive: 0
O=C(O)CCCCCCCCCCCC[C@@H]1C=CCC1,dopaminergic neuron differentiation score,ReNCell VM [2]; library: Spectrum,inactive: 0

# Part of the list above, as tab-separated lines:
smiles	measurement	setting	value
NCCCCN [Putrescine dihydrochloride]	dopaminergic neuron differentiation score	ReNCell VM [2]; library: LOPAC	inactive: 0
Oc1c(Cl)cc(Cl)c(Cl)c1Cc1c(O)c(Cl)cc(Cl)c1Cl [Hexachlorophene]	neuronal differentiation score	ReNCell VM [1]; library: Prestwick	inactive: 0
